These are yes or no findings as the source states them, for the method shown. Binding seen in cells or lysates may run through a third protein. Some entries that bind do so weakly or less than the wild type.
Target: ATRX (human (endogenous in K562)) (UniProt P46100)
Experiment: co-IP

The chains behind the UniProt entries cited, without tags or fusion partners.
UniProt P46100: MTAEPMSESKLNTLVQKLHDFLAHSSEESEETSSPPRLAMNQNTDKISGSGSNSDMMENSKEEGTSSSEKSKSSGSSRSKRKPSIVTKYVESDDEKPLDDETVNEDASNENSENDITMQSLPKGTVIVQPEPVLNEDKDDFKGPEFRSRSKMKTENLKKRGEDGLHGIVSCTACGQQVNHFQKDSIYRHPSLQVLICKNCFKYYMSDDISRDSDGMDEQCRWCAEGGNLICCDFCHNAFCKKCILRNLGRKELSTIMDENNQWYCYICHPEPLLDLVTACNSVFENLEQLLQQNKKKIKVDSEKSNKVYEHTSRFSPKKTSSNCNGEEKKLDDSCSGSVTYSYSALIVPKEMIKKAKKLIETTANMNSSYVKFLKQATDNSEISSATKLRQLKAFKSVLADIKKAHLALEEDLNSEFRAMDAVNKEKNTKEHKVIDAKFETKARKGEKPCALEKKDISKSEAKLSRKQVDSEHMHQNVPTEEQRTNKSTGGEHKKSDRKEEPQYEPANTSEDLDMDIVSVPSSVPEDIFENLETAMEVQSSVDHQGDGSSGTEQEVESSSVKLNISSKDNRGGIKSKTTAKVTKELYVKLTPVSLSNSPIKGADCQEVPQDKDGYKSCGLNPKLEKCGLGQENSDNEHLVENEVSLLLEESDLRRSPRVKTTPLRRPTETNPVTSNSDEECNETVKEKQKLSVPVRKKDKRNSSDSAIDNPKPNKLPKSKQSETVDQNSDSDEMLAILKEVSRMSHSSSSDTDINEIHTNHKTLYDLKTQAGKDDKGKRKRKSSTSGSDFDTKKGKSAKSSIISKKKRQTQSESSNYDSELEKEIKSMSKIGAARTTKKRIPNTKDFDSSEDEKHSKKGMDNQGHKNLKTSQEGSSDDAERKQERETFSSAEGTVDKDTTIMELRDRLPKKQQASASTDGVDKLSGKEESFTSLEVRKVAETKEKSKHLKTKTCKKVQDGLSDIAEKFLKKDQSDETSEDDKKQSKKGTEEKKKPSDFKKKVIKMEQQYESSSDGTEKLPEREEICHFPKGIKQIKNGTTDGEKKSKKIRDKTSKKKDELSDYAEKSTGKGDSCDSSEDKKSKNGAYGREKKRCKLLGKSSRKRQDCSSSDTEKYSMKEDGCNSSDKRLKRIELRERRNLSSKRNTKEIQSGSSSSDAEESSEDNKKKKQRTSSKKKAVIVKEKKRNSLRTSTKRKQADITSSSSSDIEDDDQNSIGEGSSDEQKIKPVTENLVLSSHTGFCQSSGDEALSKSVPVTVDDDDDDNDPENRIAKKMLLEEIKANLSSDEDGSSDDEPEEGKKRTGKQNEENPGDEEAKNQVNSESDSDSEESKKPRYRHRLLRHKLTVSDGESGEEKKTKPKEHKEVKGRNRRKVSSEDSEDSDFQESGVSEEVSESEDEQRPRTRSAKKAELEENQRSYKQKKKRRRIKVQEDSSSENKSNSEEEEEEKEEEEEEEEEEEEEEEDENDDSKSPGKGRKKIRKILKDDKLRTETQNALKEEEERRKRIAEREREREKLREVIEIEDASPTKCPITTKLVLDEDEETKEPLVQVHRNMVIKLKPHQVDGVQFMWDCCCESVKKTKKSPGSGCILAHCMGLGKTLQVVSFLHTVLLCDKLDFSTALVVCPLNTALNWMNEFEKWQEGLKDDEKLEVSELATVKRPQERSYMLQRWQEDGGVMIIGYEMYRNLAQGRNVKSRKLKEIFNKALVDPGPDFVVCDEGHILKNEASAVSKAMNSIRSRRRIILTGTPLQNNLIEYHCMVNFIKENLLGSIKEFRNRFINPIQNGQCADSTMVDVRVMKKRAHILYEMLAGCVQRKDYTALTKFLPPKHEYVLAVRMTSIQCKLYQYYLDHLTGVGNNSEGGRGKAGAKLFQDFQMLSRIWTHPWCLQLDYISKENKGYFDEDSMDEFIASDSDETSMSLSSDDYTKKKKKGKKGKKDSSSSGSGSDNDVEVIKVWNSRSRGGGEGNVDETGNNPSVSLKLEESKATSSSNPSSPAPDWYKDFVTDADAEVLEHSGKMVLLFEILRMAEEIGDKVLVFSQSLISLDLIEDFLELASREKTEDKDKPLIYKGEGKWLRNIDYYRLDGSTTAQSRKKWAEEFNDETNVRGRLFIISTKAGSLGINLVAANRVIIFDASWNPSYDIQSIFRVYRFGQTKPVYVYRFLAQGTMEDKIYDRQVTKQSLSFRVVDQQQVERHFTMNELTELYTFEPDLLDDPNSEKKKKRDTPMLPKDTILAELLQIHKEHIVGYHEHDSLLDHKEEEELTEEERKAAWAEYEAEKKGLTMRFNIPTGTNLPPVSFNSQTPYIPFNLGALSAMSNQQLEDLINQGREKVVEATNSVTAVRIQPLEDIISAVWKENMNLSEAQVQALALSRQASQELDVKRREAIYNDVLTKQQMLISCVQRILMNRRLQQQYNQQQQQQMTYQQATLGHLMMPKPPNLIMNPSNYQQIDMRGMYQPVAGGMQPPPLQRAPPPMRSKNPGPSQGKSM
UniProt Q13263: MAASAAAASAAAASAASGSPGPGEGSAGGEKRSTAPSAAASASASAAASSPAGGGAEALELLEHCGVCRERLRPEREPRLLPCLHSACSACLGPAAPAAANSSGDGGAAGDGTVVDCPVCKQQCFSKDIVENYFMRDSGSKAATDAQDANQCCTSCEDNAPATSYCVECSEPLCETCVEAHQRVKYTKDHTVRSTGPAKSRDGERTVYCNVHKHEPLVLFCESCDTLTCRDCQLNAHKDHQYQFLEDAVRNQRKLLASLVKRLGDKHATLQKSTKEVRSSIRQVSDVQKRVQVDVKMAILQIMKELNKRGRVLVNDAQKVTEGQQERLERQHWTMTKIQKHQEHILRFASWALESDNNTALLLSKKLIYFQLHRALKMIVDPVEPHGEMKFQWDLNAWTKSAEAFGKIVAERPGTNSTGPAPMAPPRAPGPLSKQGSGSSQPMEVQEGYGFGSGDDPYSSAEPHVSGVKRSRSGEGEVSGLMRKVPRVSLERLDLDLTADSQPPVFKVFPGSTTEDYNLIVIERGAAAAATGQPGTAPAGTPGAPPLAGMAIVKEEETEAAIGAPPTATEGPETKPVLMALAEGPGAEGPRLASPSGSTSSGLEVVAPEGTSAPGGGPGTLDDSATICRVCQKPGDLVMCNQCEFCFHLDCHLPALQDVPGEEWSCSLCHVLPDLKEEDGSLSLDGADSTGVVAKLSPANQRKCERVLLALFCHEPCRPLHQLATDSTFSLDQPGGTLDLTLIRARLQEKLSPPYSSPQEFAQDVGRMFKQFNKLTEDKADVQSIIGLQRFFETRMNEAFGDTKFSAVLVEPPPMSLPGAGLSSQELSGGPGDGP
UniProt Q96GC6: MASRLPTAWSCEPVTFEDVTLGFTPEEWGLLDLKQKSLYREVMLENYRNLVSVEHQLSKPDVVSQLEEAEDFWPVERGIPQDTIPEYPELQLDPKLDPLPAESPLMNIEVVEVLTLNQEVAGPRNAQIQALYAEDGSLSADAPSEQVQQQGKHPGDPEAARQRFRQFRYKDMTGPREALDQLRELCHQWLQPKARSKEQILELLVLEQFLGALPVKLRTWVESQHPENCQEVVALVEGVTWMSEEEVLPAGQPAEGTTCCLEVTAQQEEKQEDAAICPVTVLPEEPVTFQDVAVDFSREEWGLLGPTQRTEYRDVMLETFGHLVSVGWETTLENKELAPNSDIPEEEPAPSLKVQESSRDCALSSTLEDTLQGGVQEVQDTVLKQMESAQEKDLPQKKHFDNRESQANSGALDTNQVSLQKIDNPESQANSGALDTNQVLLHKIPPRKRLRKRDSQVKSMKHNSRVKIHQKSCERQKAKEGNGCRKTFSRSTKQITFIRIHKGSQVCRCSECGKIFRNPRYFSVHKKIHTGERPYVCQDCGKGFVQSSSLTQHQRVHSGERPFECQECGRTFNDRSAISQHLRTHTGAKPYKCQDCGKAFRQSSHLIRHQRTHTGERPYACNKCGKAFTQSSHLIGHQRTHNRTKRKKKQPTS

TRIM28 (from UniProt Q13263 1-835) was tested, and the binding was “binds”.
ZNF274 (from UniProt Q96GC6 1-653) was tested, and the binding was “binds”.

From doi:10.1101/027789
